In article PMC7904913:

Experiments:
[1] = target: PD-L1 with the extracellular domain (ED) deleted; assay: co-IP; HEK293T cells transfected with the indicated plasmids (PD-L1 and its deletion mutants)
[2] = target: PD-L1-ΔCyto; assay: as above

binding [1]: binds | binding [2]: no binding
B1: SA1 in HEK293T cells (protein, UniProt Q8WVM7 1-1258)
chain: MITSELPVLQDSTNETTAHSDAGSELEETEVKGKRKRGRPGRPPSTNKKPRKSPGEKSRIEAGIRGAGRGRANGHPQQNGEGEPVTLFEVVKLGKSAMQSVVDDWIESYKQDRDIALLDLINFFIQCSGCRGTVRIEMFRNMQNAEIIRKMTEEFDEDSGDYPLTMPGPQWKKFRSNFCEFIGVLIRQCQYSIIYDEYMMDTVISLLTGLSDSQVRAFRHTSTLAAMKLMTALVNVALNLSIHQDNTQRQYEAERNKMIGKRANERLELLLQKRKELQENQDEIENMMNSIFKGIFVHRYRDAIAEIRAICIEEIGVWMKMYSDAFLNDSYLKYVGWTLHDRQGEVRLKCLKALQSLYTNRELFPKLELFTNRFKDRIVSMTLDKEYDVAVEAIRLVTLILHGSEEALSNEDCENVYHLVYSAHRPVAVAAGEFLHKKLFSRHDPQAEEALAKRRGRNSPNGNLIRMLVLFFLESELHEHAAYLVDSLWESSQELLKDWECMTELLLEEPVQGEEAMSDRQESALIELMVCTIRQAAEAHPPVGRGTGKRVLTAKERKTQIDDRNKLTEHFIITLPMLLSKYSADAEKVANLLQIPQYFDLEIYSTGRMEKHLDALLKQIKFVVEKHVESDVLEACSKTYSILCSEEYTIQNRVDIARSQLIDEFVDRFNHSVEDLLQEGEEADDDDIYNVLSTLKRLTSFHNAHDLTKWDLFGNCYRLLKTGIEHGAMPEQIVVQALQCSHYSILWQLVKITDGSPSKEDLLVLRKTVKSFLAVCQQCLSNVNTPVKEQAFMLLCDLLMIFSHQLMTGGREGLQPLVFNPDTGLQSELLSFVMDHVFIDQDEENQSMEGDEEDEANKIEALHKRRNLLAAFSKLIIYDIVDMHAAADIFKHYMKYYNDYGDIIKETLSKTRQIDKIQCAKTLILSLQQLFNELVQEQGPNLDRTSAHVSGIKELARRFALTFGLDQIKTREAVATLHKDGIEFAFKYQNQKGQEYPPPNLAFLEVLSEFSSKLLRQDKKTVHSYLEKFLTEQMMERREDVWLPLISYRNSLVTGGEDDRMSVNSGSSSSKTSSVRNKKGRPPLHKKRVEDESLDNTWLNRTDTMIQTPGPLPAPQLTSTVLRENSRPMGDQIQEPESEHGSEPDFLHNPQMQISWLGQPKLEDLNRKDRTGMNYMKVRTGVRHAVRGLMEEDAEPIFEDVMMSSRSQLEDMNEEFEDTMVIDLPPSRNRRERAELRPDFFDSAAIIEDDSGFGMPMF

These are yes or no findings as the source states them, for the method shown. Binding seen in cells or lysates may run through a third protein. For some assays here: Binding can be weak; no strength is given.
